Test results from US20210122814A1.
Residue numbers refer to the chain shown, from its start. Results are given in words; binding and its absence hold for the method and conditions named. Some binding calls cover weakened binding; strength is not graded here.

Amino acid sequences for entries named in this document (tags omitted). A change or cut given only in a name is not applied to a line headed by its entry.
UniProt Q9NS15: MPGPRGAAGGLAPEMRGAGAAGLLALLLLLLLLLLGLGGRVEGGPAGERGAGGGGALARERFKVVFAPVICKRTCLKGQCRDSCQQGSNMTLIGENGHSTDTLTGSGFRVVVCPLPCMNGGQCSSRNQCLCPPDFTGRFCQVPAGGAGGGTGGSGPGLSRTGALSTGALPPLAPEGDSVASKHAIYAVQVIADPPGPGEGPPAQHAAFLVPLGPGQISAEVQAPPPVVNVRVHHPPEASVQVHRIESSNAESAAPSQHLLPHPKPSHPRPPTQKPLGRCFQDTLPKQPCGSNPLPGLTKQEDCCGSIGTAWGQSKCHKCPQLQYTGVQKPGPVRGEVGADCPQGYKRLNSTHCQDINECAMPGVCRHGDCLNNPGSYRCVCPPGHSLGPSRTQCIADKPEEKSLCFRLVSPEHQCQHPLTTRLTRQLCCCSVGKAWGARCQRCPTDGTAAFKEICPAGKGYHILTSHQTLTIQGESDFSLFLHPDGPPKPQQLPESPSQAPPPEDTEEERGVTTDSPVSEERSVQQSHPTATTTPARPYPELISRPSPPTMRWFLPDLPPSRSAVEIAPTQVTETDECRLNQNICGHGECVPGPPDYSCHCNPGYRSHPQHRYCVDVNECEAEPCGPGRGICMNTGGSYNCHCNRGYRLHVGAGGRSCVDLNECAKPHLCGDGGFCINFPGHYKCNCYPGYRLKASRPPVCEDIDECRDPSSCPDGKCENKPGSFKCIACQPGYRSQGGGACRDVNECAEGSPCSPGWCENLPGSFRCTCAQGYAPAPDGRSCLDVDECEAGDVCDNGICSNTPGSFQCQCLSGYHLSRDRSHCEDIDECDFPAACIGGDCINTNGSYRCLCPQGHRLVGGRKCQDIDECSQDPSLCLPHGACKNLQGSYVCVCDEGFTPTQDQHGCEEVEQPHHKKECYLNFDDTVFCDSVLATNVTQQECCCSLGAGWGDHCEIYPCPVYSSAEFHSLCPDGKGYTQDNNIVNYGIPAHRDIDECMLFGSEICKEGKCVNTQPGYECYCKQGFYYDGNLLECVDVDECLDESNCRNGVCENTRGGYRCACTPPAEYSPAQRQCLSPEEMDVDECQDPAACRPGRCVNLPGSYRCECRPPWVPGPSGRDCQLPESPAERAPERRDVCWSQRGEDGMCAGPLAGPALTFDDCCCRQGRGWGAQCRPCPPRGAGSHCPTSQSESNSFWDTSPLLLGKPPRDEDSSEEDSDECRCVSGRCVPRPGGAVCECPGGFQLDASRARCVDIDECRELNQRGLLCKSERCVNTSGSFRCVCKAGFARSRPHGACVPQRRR
UniProt P17246: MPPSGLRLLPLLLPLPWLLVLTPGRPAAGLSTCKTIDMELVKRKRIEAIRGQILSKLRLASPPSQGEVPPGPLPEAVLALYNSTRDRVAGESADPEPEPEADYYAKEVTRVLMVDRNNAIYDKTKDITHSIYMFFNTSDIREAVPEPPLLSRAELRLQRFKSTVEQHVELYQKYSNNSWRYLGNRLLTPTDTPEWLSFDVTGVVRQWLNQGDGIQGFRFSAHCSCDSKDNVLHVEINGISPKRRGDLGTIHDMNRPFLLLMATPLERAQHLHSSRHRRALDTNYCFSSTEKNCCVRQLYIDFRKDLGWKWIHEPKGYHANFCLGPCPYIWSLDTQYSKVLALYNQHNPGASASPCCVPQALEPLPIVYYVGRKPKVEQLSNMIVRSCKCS
UniProt Q14766: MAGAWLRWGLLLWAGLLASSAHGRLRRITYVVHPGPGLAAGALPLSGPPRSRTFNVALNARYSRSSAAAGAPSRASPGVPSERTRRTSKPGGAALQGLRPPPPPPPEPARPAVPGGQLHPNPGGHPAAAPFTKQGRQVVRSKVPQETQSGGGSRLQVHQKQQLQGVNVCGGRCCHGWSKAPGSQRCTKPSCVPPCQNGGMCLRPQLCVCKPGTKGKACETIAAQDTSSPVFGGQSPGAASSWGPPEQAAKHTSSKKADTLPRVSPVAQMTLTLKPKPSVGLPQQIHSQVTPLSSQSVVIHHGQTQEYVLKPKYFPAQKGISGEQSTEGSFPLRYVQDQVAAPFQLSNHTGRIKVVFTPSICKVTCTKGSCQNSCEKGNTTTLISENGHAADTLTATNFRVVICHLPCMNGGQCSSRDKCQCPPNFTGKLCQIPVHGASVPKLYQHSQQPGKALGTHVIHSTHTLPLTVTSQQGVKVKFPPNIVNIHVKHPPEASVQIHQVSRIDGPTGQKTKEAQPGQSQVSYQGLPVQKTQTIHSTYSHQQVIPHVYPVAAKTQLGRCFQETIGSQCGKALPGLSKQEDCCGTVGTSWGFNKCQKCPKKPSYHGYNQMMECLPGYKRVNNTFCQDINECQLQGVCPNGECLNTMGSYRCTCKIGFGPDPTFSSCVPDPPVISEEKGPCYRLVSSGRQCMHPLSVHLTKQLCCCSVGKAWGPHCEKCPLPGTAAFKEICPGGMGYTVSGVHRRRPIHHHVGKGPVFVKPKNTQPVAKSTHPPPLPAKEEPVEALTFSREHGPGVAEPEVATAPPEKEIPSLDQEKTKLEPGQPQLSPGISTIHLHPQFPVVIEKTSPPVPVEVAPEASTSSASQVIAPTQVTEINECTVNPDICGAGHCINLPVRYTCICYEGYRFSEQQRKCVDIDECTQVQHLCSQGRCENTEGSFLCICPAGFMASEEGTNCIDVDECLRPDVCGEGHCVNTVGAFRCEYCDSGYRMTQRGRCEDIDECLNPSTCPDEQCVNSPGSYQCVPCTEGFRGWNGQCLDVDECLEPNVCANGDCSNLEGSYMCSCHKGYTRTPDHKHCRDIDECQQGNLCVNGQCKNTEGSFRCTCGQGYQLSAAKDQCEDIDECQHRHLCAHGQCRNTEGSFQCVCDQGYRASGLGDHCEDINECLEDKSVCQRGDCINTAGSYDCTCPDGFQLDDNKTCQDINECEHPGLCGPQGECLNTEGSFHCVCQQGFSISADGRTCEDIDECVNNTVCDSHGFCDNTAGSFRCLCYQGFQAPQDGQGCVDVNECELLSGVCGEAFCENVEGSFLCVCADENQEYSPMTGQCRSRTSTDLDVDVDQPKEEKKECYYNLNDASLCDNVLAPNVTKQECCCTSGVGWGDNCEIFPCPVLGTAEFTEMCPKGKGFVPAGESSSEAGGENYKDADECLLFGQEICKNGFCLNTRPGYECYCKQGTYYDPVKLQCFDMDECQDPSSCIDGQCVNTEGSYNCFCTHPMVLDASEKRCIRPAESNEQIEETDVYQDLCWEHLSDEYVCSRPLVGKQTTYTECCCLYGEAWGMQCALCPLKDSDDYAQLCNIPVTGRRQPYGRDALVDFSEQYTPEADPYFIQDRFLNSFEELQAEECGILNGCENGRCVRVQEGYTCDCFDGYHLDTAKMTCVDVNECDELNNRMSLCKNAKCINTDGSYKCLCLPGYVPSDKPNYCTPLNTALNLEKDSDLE
UniProt Q5BK65: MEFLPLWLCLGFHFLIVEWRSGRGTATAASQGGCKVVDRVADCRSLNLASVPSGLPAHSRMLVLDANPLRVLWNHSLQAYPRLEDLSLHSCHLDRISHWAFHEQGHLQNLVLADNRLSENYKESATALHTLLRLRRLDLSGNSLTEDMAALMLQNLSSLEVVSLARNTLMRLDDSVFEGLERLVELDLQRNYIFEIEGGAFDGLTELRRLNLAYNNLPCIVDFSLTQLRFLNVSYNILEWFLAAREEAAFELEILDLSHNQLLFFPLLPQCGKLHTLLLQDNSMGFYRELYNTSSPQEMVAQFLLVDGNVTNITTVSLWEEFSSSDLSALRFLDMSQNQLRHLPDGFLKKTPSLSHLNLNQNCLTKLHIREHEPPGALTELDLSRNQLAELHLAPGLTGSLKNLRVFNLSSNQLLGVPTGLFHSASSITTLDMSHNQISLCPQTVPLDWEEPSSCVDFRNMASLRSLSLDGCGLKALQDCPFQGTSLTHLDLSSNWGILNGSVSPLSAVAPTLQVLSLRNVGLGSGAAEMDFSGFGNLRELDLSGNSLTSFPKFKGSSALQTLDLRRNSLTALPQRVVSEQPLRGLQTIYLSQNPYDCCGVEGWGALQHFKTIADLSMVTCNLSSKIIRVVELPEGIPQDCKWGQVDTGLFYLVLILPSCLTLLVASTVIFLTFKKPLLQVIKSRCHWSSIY
UniProt P01137: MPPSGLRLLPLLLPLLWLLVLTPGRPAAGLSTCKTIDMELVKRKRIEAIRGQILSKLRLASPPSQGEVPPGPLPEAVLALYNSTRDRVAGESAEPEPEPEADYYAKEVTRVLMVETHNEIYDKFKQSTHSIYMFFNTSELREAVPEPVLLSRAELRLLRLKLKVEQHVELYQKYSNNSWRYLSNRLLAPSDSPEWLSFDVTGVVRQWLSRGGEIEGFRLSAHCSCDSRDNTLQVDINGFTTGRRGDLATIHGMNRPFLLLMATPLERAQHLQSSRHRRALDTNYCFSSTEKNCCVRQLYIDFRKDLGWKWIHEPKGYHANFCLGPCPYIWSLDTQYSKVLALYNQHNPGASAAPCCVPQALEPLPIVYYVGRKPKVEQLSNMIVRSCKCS
UniProt Q8BMT4: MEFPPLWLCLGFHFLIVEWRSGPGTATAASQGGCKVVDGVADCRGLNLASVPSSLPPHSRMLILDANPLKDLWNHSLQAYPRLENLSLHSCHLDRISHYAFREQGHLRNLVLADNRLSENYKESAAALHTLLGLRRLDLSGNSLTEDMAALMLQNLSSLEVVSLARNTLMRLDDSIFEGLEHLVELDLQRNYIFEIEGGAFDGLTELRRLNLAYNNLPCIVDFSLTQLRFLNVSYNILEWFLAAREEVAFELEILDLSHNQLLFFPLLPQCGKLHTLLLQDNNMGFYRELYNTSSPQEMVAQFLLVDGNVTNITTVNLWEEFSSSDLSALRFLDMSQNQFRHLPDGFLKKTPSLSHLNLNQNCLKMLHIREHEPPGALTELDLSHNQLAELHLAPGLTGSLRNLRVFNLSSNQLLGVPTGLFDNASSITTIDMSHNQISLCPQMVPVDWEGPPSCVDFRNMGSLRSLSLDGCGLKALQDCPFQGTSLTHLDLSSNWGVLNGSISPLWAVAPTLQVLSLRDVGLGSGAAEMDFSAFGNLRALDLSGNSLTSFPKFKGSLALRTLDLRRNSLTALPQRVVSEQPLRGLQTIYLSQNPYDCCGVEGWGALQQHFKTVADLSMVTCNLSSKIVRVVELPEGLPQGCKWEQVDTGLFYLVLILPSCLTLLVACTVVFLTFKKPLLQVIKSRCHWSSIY
UniProt P04202: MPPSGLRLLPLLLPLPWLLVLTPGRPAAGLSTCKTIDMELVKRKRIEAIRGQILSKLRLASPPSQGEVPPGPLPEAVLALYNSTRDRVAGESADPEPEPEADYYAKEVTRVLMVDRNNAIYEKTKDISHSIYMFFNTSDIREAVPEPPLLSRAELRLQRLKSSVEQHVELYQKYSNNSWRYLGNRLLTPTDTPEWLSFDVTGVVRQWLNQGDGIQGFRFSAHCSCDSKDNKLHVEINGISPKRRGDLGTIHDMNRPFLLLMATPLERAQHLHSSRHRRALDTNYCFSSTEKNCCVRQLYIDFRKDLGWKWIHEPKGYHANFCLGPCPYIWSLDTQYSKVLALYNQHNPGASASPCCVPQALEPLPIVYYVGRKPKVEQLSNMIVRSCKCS

Assays:
[1] = target: recombinant human LTBP3-proTGFβ1 complex (human) (UniProt Q9NS15); test: MSD-SET
[2] = target: cynomolgus LRRC33-proTGFβ1 complex (cynomolgus monkey); test: MSD-SET
[3] = target: T1, rat LTBP1-proTGFβ1 complex (rat) (UniProt P17246+Q00918); test: MSD-SET
[4] = target: recombinant human LTBP1-proTGFβ1 complex (human) (UniProt Q14766); test: MSD-SET
[5] = target: T2, rat LRRC33-proTGFβ1 complex (rat) (UniProt P17246+Q5BK65); test: MSD-SET
[6] = target: hLRRC33-proTGFβ1 on the cell surface (human) (UniProt P01137); test: internalization assay on transfected cells (FIG. 6)
[7] = target: murine LRRC33-proTGFβ1 complex (mouse) (UniProt Q8BMT4); test: antigen binding test after affinity maturation
[8] = target: recombinant human LTBP3-proTGFβ1 complex (human) (UniProt Q9NS15); test: antigen binding test after affinity maturation
[9] = target: cynomolgus LRRC33-proTGFβ1 complex (cynomolgus monkey); test: antigen binding test after affinity maturation
[10] = target: murine LTBP3-proTGFβ1 complex (mouse) (UniProt P04202); test: antigen binding test after affinity maturation
[11] = target: murine LTBP1-proTGFβ1 complex (mouse) (UniProt P04202); test: antigen binding test after affinity maturation
[12] = target: T1, rat LTBP1-proTGFβ1 complex (rat); test: antigen binding test after affinity maturation
[13] = target: recombinant human LTBP1-proTGFβ1 complex (human) (UniProt Q14766); test: antigen binding test after affinity maturation
[14] = target: T2, rat LRRC33-proTGFβ1 complex (rat); test: antigen binding test after affinity maturation
[15] = target: recombinant human LTBP3-proTGFβ1 complex (human) (UniProt Q9NS15); test: MSD-SET (FIG. 33A)
[16] = target: recombinant human LTBP1-proTGFβ1 complex (human) (UniProt Q14766); test: MSD-SET (FIG. 33A)
[17] = target: hLRRC33-proTGFβ1 on the cell surface (human) (UniProt P01137); test: Incucyte internalization assay, Expi293 cells expressing LRRC33-proTGFβ1
[18] = target: recombinant human LTBP3-proTGFβ1 complex (human) (UniProt Q9NS15); test: MSD-SET (solution equilibrium titration), % free antigen against Ab6 concentration
[19] = target: recombinant human LTBP1-proTGFβ1 complex (human) (UniProt Q14766); test: as above
[20] = target: recombinant human LTBP3-proTGFβ1 complex (human) (UniProt Q9NS15); test: biolayer interferometry (screening)
[21] = target: murine LTBP3-proTGFβ1 complex (mouse) (UniProt P04202); test: biolayer interferometry (screening)
[22] = target: murine LTBP1-proTGFβ1 complex (mouse) (UniProt P04202); test: biolayer interferometry (screening)
[23] = target: recombinant human LTBP1-proTGFβ1 complex (human) (UniProt Q14766); test: biolayer interferometry (screening)

Measured: binding

B1: Ab6 (antibody, V domains shown)
VH: EVQLVESGGGLVQPGGSLRLSCTASGFTFSSFSMDWVRQAPGKGLEWVSYISPSADTIYYADSVKGRFTISRDNAKNTLYLQMNSLRAEDTAVYYCARGVLDYGDMLMPWGQGTLVTVSS
VL: DIQMTQSPSSLSASVGDRVTITCQASQDITNYLNWYQQKPGKAPKLLIYDASNLETGVPSRFSGSGSGTDFTFTISSLQPEDIATYYCQQADNHPPWTFGGGTKVEIKR
not listed: [20] | [21] | [22] | [23]
binds: all other assays above

B2: Ab4 (antibody, IgG4, V domains shown)
VH: B1 VH with T23A, F32Y, D35N, P53S, A55S, D56S, T78S, M108D
VL: DIQMTQSPSSLSASVGDRVTITCQASQDITNYLNWYQQKPGKAPKLLIYDASNLETGVPSRFSGSGSGTDFTFTISSLQPEDIATYYCQQADNHPPWTFGGGTKVEIK
binds: [20] | [21] | [22] | [23]
